Assay results published in patent publication US10292388B2, “Malononitrile compounds for controlling animal pests” (BASF SE, priority 2012, dated 2019).
Some entries share one result that the patent states for a list of compounds.

Assays:
Type in all cases: in vivo
[1] = tested on: boll weevil (Anthonomus grandis); test: Boll weevil microtiter plate diet test; conditions: 2500 ppm; sprayed onto insect diet with eggs; egg and larval mortality after 5 days
Method: B.9 Boll Weevil (Anthonomus grandis)
For evaluating control of boll weevil (Anthonomus grandis) the test unit consisted of 24-well-microtiter plates containing an insect diet and 20-30 A. grandis eggs. The compounds were formulated using a solution containing 75% v/v water and 25% v/v DMSO. Different concentrations of formulated compounds were sprayed onto the insect diet at 20 μl, using a custom built micro atomizer, at two replications. After application, microtiter plates were incubated at about 23±1° C. and about 50±5% relative humidity for 5 days. Egg and larval mortality was then visually assessed.

[2] = tested on: yellow fever mosquito (Aedes aegypti); conditions: 2500 ppm; freshly hatched larvae in tap water; larval mortality after 2 days
Method: B.12 Yellow Fever Mosquito (Aedes aegypti)
For evaluating control of yellow fever mosquito (Aedes aegypti) the test unit consisted of 96-well-microtiter plates containing 200 μl of tap water per well and 5-15 freshly hatched A. aegypti larvae. The compounds or mixtures were formulated using a solution containing 75% water and 25% DMSO. Different concentrations of formulated compounds or mixtures were sprayed onto the insect diet at 2.5 μl, using a custom built micro atomizer, at two replications. After application, microtiter plates were incubated at 28±1° C., 80±5% relative humidity for 2 days. Larval mortality was then visually assessed.

[3] = tested on: Rice Brown Plant Hopper (Nilaparvata lugens); test: Rice brown plant hopper test on sprayed rice seedlings; conditions: 300 ppm, adults, after 72 hours

| SMILES | mortality in comparison with untreated controls [1] | mortality in comparison with untreated controls [2] | mortality in comparison with untreated controls [3] |
| --- | --- | --- | --- |
| N#CC(C#N)(Cc1ccccc1C(F)(F)F)c1cc(F)cc(F)c1 [II-124] | at least 75% | at least 75% |  |
| CC(c1ccc(F)cc1F)C(C#N)(C#N)c1ccccc1 (racemic) [II-129] | at least 75% | at least 75% |  |
| N#CC(C#N)(Cc1ccc(-n2cccn2)cc1)c1ccc(F)cc1 [II-163] | at least 75% |  |  |
| N#CC(C#N)(Cc1ccc(C2CC2)cc1)c1ccc(F)cc1 [II-157] | at least 75% | at least 75% |  |
| CC(c1ccc(F)cc1F)C(C#N)(C#N)c1ccc(F)cc1 (racemic) [II-130] | at least 75% | at least 75% | at least 75% |
| N#CC(C#N)(Cc1ccc(Cl)c(Cl)c1)c1ccc(Cl)cc1 [II-7] | at least 75% |  |  |
| N#CC(C#N)(Cc1ccccc1F)c1ccc(F)cc1 [II-115] |  | at least 75% | at least 75% |
| N#CC(C#N)(Cc1ccc(Br)c(F)c1)c1ccccc1 [II-81] | at least 75% | at least 75% | at least 75% |
| N#CC(C#N)(Cc1ccc(-n2ccnc2)cc1)c1ccc(F)cc1 [II-164] | at least 75% |  |  |
| N#CC(C#N)(Cc1ccc(F)cc1)c1ccccc1 [II-90] | at least 75% | at least 75% |  |
| C=Cc1ccc(CC(C#N)(C#N)c2ccc(Cl)cc2)cc1 [II-44] | at least 75% |  |  |
| N#CC(C#N)(Cc1ccc(Cl)c(Cl)c1)c1ccccc1 [II-2] | at least 75% |  | at least 75% |
| C#Cc1ccc(CC(C#N)(C#N)c2ccc3ccccc3c2)cc1 [III-2] | at least 75% |  |  |
| N#CC(C#N)(Cc1ccccc1Cl)c1ccccc1 [II-121] |  | at least 75% | at least 75% |
| N#CC(C#N)(Cc1ccc([N+](=O)[O-])cc1)c1ccccc1 [II-218] | at least 75% |  |  |
| N#CC(C#N)(Cc1ccc(Br)cc1)c1ccccc1 [II-48] | at least 75% | at least 75% |  |
| CC(C)(C)c1ccc(CC(C#N)(C#N)c2ccc(F)cc2)cc1 [II-171] | at least 75% |  | at least 75% |
| N#CC(C#N)(Cc1ccccc1F)c1cc(F)cc(F)c1 [II-122] | at least 75% | at least 75% | at least 75% |
| N#CC(C#N)(Cc1ccc(I)cc1)c1ccccc1 [II-9] | at least 75% |  | at least 75% |
| N#CC(C#N)(Cc1ccc(Cl)cc1)c1ccccc1 [II-4] | at least 75% |  |  |
| N#CC(C#N)(Cc1ccc(Cl)cc1)c1ccc(F)cc1 [II-152] |  | at least 75% |  |

| SMILES | mortality in comparison with untreated controls [1] | mortality in comparison with untreated controls [2] | mortality in comparison with untreated controls [3] |
| --- | --- | --- | --- |
| N#CC(C#N)(Cc1ccc(C(F)(F)F)cc1)c1ccccc1 [II-3] |  | at least 75% |  |
| N#CC(C#N)(Cc1ccc(OC(F)(F)F)cc1)c1ccccc1 [II-12] |  | at least 75% |  |
| N#CC(C#N)(Cc1ccc(C(F)(F)F)cc1)c1cc(F)c(F)c(F)c1 [II-108] |  | at least 75% |  |
| C#Cc1ccc(CC(C#N)(C#N)c2c(F)c(F)c(I)c(F)c2F)cc1 [II-204] |  | at least 75% |  |
| N#CC(C#N)(Cc1ccccc1)c1ccc(Cl)cc1 [II-43] | at least 75% |  |  |
| C#Cc1ccc(CC(C#N)(C#N)c2cccc(C#N)c2)cc1 [II-99] |  | at least 75% |  |
| N#CC(C#N)(Cc1ccc(C(F)F)cc1)c1ccc(F)cc1 [II-52] |  | at least 75% |  |
| N#Cc1cccc(CC(C#N)(C#N)c2cc(F)c(F)c(F)c2)c1 [II-179] |  | at least 75% |  |
| CCC(c1ccc(C(F)(F)F)cc1)C(C#N)(C#N)c1ccccc1 (centres unmarked) [II-69] |  | at least 75% |  |
| N#Cc1ccc(C(C#N)(C#N)Cc2ccc(C(F)(F)F)cc2)cc1 [II-76] |  | at least 75% |  |
| C#Cc1ccc(CC(C#N)(C#N)c2cccc(C)c2)cc1 [II-80] |  | at least 75% |  |
| N#CC(C#N)(Cc1ccc(C(F)(F)F)cc1)c1ccc(F)c(F)c1F [II-190] | at least 75% | at least 75% | at least 75% |
| N#CC(C#N)(Cc1cccc(Cl)c1)c1cc(F)c(F)c(F)c1 [II-184] |  | at least 75% |  |
| C[Si](C)(C)C#Cc1ccc(CC(C#N)(C#N)c2ccccc2)cc1 [II-10] | at least 75% |  | at least 75% |
| Cc1ccc(CC(C#N)(C#N)c2ccc(F)cc2)cc1 [II-167] | at least 75% |  |  |
| N#CC(C#N)(Cc1ccc(C(F)(F)F)cc1F)c1ccc(F)cc1 [II-57] |  | at least 75% |  |
| CC(c1ccc(Br)cc1)C(C#N)(C#N)c1cccc(F)c1 (centres unmarked) [II-75] |  | at least 75% |  |
| C#Cc1ccc(CC(C#N)(C#N)c2ccccc2F)cc1 [II-78] |  | at least 75% |  |
| N#CC(C#N)(Cc1ccc(F)cc1)c1ccc(F)cc1 [II-95] |  | at least 75% |  |
| COc1ccc(CC(C#N)(C#N)c2cc(F)c(F)c(F)c2)cc1 [II-142] | at least 75% | at least 75% | at least 75% |
| N#CC(C#N)(Cc1ccc(C(F)F)cc1)c1ccccc1 [II-51] |  | at least 75% |  |

| SMILES | mortality in comparison with untreated controls [1] | mortality in comparison with untreated controls [2] | mortality in comparison with untreated controls [3] |
| --- | --- | --- | --- |
| CC(c1ccc(Cl)cc1)C(C#N)(C#N)c1cc(F)c(F)c(F)c1 (centres unmarked) [II-192] |  | at least 75% |  |
| Cc1cccc(C(C#N)(C#N)Cc2ccc(C(F)(F)F)cc2)c1 [II-79] | at least 75% | at least 75% |  |
| CC(C)c1ccc(CC(C#N)(C#N)c2ccc(F)cc2)cc1 [II-155] | at least 75% | at least 75% | at least 75% |
| N#CC(C#N)(Cc1ccc(-c2ccncc2)cc1)c1ccc(F)cc1 [II-166] | at least 75% |  |  |
| N#Cc1ccc(CC(C#N)(C#N)c2ccc(F)cc2)cc1 [II-158] |  | at least 75% |  |
| N#CC(C#N)(Cc1cc(Cl)c(C(F)(F)F)cc1Cl)c1ccccc1 [II-103] |  | at least 75% |  |
| N#Cc1ccc(CC(C#N)(C#N)c2ccc(Cl)cc2)cc1 [II-39] | at least 75% |  |  |
| N#CC(C#N)(Cc1ccc(C(F)(F)F)cc1)c1c(F)c(F)cc(F)c1F [II-177] |  | at least 75% |  |
| N#CC(C#N)(Cc1ccc(I)cc1)c1ccc(Cl)cc1 [II-8] | at least 75% |  |  |
| N#CC(C#N)(Cc1ccc(C(F)(F)F)cc1)c1ccccc1F [II-46] |  | at least 75% |  |
| CC(c1ccc(C(F)(F)F)cc1)C(C#N)(C#N)c1cc(F)c(F)c(F)c1 (centres unmarked) [II-110] |  | at least 75% |  |
| CC(c1ccc(C(F)(F)F)cc1)C(C#N)(C#N)c1ccc2c(c1)OCO2 (racemic) [II-139] |  | at least 75% |  |
| N#CC(C#N)(Cc1cccc(F)c1)c1cc(F)c(F)c(F)c1 [II-197] |  | at least 75% |  |
| C#Cc1ccc(CC(C#N)(C#N)c2ccc(Cl)cc2)cc1 [II-11] | at least 75% | at least 75% | at least 75% |
| N#CC(C#N)(Cc1ccccc1Cl)c1cc(F)cc(F)c1 [II-123] |  | at least 75% |  |
| N#CC(C#N)(Cc1ccc(Cl)cc1)c1ccc(Cl)cc1 [II-5] | at least 75% |  |  |
| N#CC(C#N)(Cc1ccc(C(F)(F)F)cc1)c1cccc(F)c1F [II-107] |  | at least 75% |  |
| N#CC(C#N)(Cc1ccc(-n2cncn2)cc1)c1ccc(F)cc1 [II-165] | at least 75% |  |  |
| C#Cc1ccc(C(C)C(C#N)(C#N)c2ccc(F)cc2)cc1 (centres unmarked) [II-96] |  | at least 75% |  |
| N#CC(C#N)(Cc1ccccc1Cl)c1ccc(F)cc1 [II-116] |  | at least 75% |  |
| N#CC(C#N)(CCc1ccc(Cl)cc1)c1ccccc1 [IV-2] |  | at least 75% |  |
